This assay relates to BDF1 mice, B16 melanoma ip, median survival T/C. The assay can be described thus: NCI In Vivo Anticancer Drug Screen. Data for tumor model B16 Melanoma (intraperitoneal) in B6D2F1 (BDF1) mice. The conditions noted are these: T/C endpoint: median survival time, schedule: Q01DX009 (ip), higher T/C = longer survival. The method in brief: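 Read-out: survival or tumor size, given as treated/control ratio. Controls received vehicle only; animals bore transplantable tumors.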

Where [1] appears, read: dose: 400.0 mg/kg/injection, vehicle: Klucel (hydroxypropylcellulose) (HPC).
Where [2] appears, read: dose: 200.0 mg/kg/injection, vehicle: saline with Tween-80.

We go through five compounds from PubChem BioAssay AID192 (DTP/NCI, 2004).

The list is a part of this screen's results and no random one: it is rich in T/C values a quarter to a half above the control, in often repeated tests (any T/C) and in doses without a T/C. Further doses and runs are listed elsewhere. T/C gives the treated animals as a percentage of the vehicle group. Some doses have a count of surviving animals in place of a T/C: the source files T/C as zero there, which appears to mark a toxic dose or a test without result, not a measured value. Some doses without a T/C left all or most animals alive at the check, yet need not have been tolerated: the source hardly ever lists a survival T/C far under the control, and the zero likely stands for such cases as well. Counts of survivors are from the toxicity check (mostly the fifth day) where no day follows; animals may have died later. Schedules are NCI's codes, read here as Q, the interval in days (D) or hours (H), X, the number of doses.

As for `CCC(C(N)=O)C1=CCCCC1` (stereo not drawn), the survivor count under setting [1] is 10 of 10.

As to `CC(C)(C)OC(=O)NC(Cc1ccc(OCc2ccccc2)cc1)C(=O)O` (stereo not drawn), the survivor count (dose: 50.0 mg/kg/injection, vehicle: saline with Tween-80) is on record as 10 of 10; the survivor count under setting [2] is 9 of 10; the survivor count (dose: 400.0 mg/kg/injection, vehicle: saline with Tween-80) is recorded as 3 of 10.

As to `Clc1ccc(COC(Cn2ccnc2)c2ccc(Cl)cc2Cl)c(Cl)c1` (stereo not drawn), the survivor count under setting [1] was 10 of 10.

`CNCC(C)(C)c1ccccc1`: where the note is “dose: 100.0 mg/kg/injection, vehicle: saline”, the survivor count was 7 of 10.

For `CCCCCCC#CC(=O)OC`, the survivor count is reported as 10 of 10 (dose: 100.0 mg/kg/injection, vehicle: saline with Tween-80) and 10 of 10 under setting [2].
